No signal at the amounts used counts as a negative. The comparison behind a weaker result is the experiment's own reference, which may not be listed here.
How the values were obtained:
MIF (Homo sapiens) [1] = molecular target: MIF (Homo sapiens) (UniProt P14174); experiment: EMSA; conditions: 10 mM Mg2+, purified recombinant protein, protein details: GST tag removed (pGex-6P-1), label: 5' biotin, single-stranded DNA
MIF (Homo sapiens) [2] = molecular target: MIF (Homo sapiens) (UniProt P14174); experiment: enzyme reaction in vitro; conditions: purified recombinant protein, protein details: GST tag removed (pGex-6P-1)
[3] = endo Y, exo Y, label: 5' biotin, single-stranded DNA, variant of PS30

Chains of the proteins cited; added tags and fusions are not shown. Lines headed by an entry give the natural chain unless they say otherwise; changes in a name come on top.
UniProt P14174: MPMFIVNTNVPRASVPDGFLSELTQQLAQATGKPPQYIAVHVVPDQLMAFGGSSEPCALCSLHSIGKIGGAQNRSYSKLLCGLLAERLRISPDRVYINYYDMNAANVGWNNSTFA

CCTGTAATCCCAAGTAGCTGGGATTACAGG [SL]
binding result (MIF (Homo sapiens) [1]; variant of PS30): binds more weakly

AAAAAAAAAAAAAAAAAAAAAAAAAAAAAA [PA30]
binding result (MIF (Homo sapiens) [1]): no binding

CTCAATTTCCCAAGTAGCTGGGATTACAGG [m18]
activity on this sequence (MIF (Homo sapiens) [2]; [3]): active

CTCAGCCTCCCAAGTAAATGGGATTACAGG [m12]
activity on this sequence (MIF (Homo sapiens) [2]; [3]): active

CTCAGCCTCCCAAGTAGCTGGGATTACAGG (double strand) [dsPS30]
activity on this sequence (MIF (Homo sapiens) [2]; 1-4 uM MIF, not cleaved, label: 5' biotin, variant of PS30): not active

TGGGATTACAGGCGTGAGCCACCACGCCC [BS2]
activity on this sequence (MIF (Homo sapiens) [2]; endo Y, exo Y, label: 5' biotin, single-stranded DNA): active

AAAAGCCTCCCAAGTAGCTGGGATTACAGG [m7]
activity on this sequence (MIF (Homo sapiens) [2]; [3]): active

CTCAAAATCCCAAGTAGCTGGGATTACAGG [m17]
activity on this sequence (MIF (Homo sapiens) [2]; [3]): active

CTCAGCCTCCAAAAAAAAAAGGATTACAGG [m2]
activity on this sequence (MIF (Homo sapiens) [2]; [3]): active

CTCAGCCTCCCAAGTAGCAGGGATTACAGG [m15]
activity on this sequence (MIF (Homo sapiens) [2]; [3]): active

CTCAGCCTCCCAAAAAAAAGGGATTACAGG [m5]
activity on this sequence (MIF (Homo sapiens) [2]; [3]): active

CTCAGCCTCCCAAGTAAAAGGGATTACAGG [m11]
activity on this sequence (MIF (Homo sapiens) [2]; [3]): active

CAAGTAGCTGCTCAGCCTCCGGATTACAGG [m9]
activity on this sequence (MIF (Homo sapiens) [2]; [3]): active

ACCTAAATGCTAGAGCTCGCTGATCAGCCT (double strand) [dsL3]
activity on this sequence (MIF (Homo sapiens) [2]; 1-4 uM MIF, not cleaved, label: 5' biotin, variant of L3): not active

AAAAATCTCAGCCTCCCAAGTAGCTGGGAT [m20]
activity on this sequence (MIF (Homo sapiens) [2]; [3]): active

CTCAGCCTCCCAAGTAGCTGAAAAAAAAAA [m3]
activity on this sequence (MIF (Homo sapiens) [2]; [3]): active

CTCAAAAAAACAAGTAGCTGGGATTACAGG [m6]
activity on this sequence (MIF (Homo sapiens) [2]; [3]): active

CTCAAAATCCCAAAAAAAAGGGATTACAGG [m8]
activity on this sequence (MIF (Homo sapiens) [2]; [3]): active

TCCCAAGTAGCTGGGATTACAGGAAAAAAA (double strand) [dsRF]
activity on this sequence (MIF (Homo sapiens) [2]; 1-4 uM MIF, not cleaved, label: 5' biotin, variant of RF): not active

AAAAAAACTCAGCCTCCCAAGTAGCTGGGA [3'bLF]
activity on this sequence (MIF (Homo sapiens) [2]; endonuclease cleavage at 3' end, label: 3' biotin, single-stranded DNA, variant of LF): active

CTCAGCCTCCCTTGTAGCTGGGATTACAGG [m16]
activity on this sequence (MIF (Homo sapiens) [2]; [3]): active

TCCCAAGTAGCTGGGATTACAGGAAAAAAA [RF]
activity on this sequence (MIF (Homo sapiens) [2]; [3]): active | binding result (MIF (Homo sapiens) [1]; low efficiency, variant of PS30): binds more weakly

CTCAGCCTCCCAAGTAGCTGGGATTACAGGTAAACTTGGT [PS40]
activity on this sequence (MIF (Homo sapiens) [2]; [3]): active

ACCTAAATGCTAGAGCTCGCTGATCAGCCT [L3]
activity on this sequence (MIF (Homo sapiens) [2]; endo Y, exo Y, less efficient than PS30, label: 5' biotin, single-stranded DNA): less active | binding result (MIF (Homo sapiens) [1]; much lower than PS30): binds more weakly

CTCAGCCTCCGGATTACAGGCAAGTAGCTG [m10]
activity on this sequence (MIF (Homo sapiens) [2]; [3]): active

CCTGTAATCCCAAGTAGCTGGGATTACAGG [3'bSL]
activity on this sequence (MIF (Homo sapiens) [2]; endonuclease cleavage at 3' end, label: 3' biotin, single-stranded DNA, variant of SL): active

CTCAGCCTCCCAAGTAAACGGGATTACAGG [m14]
activity on this sequence (MIF (Homo sapiens) [2]; [3]): active

CTCAGCCAAAAAAATAGCTGGGATTACAGG [m4]
activity on this sequence (MIF (Homo sapiens) [2]; [3]): active

CTCAGCCTCCCAAGTAGCTGGGATTACAGG / TCCCAGCTACTTGGGAGGCTGAG [3E]
activity on this sequence (MIF (Homo sapiens) [2]; endo N, exo Y, label: 5' biotin, variant of PS30): active

AAAAAAAAAACAAGTAGCTGGGATTACAGG [3F1]
activity on this sequence (MIF (Homo sapiens) [2]; endo Y, exo Y, 29 nt product, label: 5' biotin, single-stranded DNA, variant of …): active
